In paper PMC9816108 one finds binding data, which are given here for one substance.

The chains behind the UniProt entries cited, without tags or fusion partners. Residues count along the entry.
UniProt P62812, residues 28-455: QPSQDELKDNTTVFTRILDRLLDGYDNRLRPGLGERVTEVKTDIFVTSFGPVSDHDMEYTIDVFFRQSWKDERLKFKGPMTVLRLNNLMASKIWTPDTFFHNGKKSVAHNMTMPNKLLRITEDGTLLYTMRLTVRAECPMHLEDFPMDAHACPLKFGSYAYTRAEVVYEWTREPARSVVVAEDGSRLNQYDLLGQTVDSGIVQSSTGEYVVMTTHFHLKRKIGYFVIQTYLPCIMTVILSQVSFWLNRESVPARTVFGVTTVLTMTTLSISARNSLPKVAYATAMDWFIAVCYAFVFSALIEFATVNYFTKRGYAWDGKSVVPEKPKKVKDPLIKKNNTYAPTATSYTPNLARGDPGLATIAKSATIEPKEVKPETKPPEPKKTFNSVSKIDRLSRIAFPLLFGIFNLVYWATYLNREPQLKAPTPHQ
UniProt Q62261: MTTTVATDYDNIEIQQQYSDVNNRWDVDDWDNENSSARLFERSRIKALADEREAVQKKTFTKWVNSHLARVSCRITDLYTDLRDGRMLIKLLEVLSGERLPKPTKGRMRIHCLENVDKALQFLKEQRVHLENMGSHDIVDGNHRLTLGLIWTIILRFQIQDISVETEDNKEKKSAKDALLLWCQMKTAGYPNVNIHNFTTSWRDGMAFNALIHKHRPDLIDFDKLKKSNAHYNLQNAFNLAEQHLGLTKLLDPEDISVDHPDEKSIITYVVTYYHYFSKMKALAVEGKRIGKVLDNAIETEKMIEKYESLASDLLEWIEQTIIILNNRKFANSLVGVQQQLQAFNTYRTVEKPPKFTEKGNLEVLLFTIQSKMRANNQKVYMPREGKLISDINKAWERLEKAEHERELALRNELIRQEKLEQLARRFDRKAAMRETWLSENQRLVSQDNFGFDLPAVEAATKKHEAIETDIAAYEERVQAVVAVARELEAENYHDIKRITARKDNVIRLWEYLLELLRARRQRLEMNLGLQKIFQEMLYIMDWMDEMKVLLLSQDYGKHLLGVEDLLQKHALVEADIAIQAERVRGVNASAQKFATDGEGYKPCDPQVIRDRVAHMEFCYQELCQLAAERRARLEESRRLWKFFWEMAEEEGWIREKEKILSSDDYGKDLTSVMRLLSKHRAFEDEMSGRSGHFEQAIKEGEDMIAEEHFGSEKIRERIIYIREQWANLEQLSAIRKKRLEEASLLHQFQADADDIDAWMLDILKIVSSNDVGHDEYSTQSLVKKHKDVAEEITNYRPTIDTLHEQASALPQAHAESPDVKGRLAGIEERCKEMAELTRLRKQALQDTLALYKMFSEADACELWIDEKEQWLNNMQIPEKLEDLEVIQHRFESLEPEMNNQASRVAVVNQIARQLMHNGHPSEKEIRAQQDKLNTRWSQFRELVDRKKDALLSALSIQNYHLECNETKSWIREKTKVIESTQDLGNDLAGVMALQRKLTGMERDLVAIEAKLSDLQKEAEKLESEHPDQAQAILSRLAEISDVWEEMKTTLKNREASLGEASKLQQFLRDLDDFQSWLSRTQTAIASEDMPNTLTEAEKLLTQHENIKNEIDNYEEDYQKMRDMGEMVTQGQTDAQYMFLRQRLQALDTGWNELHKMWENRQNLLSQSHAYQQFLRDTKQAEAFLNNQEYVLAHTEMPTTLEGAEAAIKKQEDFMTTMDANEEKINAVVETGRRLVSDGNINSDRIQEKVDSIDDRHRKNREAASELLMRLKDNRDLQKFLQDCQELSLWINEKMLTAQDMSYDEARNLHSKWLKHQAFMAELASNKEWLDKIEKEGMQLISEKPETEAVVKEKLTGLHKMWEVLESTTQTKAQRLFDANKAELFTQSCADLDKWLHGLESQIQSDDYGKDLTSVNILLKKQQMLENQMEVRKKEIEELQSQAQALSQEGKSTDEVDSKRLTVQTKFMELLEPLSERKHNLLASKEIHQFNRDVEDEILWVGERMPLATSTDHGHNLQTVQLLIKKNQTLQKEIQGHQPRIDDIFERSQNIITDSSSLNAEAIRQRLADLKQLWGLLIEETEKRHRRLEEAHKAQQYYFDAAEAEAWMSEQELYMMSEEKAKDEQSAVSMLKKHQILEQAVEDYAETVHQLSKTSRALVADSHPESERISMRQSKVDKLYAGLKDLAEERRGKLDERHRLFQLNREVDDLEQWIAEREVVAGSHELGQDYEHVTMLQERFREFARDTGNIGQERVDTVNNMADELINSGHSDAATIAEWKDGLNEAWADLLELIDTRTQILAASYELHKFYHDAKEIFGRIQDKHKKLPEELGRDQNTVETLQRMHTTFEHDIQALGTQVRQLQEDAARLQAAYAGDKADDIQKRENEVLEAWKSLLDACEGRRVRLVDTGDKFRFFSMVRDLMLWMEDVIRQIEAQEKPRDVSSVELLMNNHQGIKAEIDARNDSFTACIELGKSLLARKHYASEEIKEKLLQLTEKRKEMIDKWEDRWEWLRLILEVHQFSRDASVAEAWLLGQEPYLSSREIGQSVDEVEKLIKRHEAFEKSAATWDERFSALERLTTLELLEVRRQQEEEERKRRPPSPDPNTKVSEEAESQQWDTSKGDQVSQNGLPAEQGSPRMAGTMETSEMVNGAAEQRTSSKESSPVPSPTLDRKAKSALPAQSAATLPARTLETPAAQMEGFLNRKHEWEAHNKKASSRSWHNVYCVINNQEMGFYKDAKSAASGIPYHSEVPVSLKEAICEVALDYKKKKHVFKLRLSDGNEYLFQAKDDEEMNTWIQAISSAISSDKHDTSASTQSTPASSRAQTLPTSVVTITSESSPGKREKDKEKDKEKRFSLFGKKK

Experiment [1] deals with T1, GABAA receptor α2 subunit modified with pHluorin and 9E10 (myc) epitope on its N-terminus (mouse (knock-in, forebrain)) (UniProt P26048).
T1 sequence: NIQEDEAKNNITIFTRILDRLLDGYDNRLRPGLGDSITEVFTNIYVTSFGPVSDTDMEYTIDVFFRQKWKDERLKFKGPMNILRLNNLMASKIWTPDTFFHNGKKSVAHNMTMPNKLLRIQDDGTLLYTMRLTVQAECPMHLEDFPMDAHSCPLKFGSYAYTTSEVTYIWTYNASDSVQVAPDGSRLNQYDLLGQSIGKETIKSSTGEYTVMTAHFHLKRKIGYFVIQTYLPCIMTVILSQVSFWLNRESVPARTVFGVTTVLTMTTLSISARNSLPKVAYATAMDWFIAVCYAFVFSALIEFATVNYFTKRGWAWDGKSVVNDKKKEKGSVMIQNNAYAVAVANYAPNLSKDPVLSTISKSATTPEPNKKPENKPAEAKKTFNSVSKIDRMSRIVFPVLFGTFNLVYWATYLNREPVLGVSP
The experiment is described as follows: co-IP; immunopurified α1 and α2 (pHα2) receptors from forebrain plasma membranes resolved by BN-PAGE and immunoblotted for α1, pHα2 (GFP), β2 spectrin and β4 spectrin.

Experiment [2] addresses GABAA receptor α1 subunit (mouse (endogenous in forebrain)) (UniProt P62812). The experiment is described as above.

These are yes or no findings as the source states them, for the method shown. In cells and extracts the contact can be indirect. Some entries that bind do so weakly or less than the wild type. For some assays here: Sequences can lack the tags named with a protein.

“β2 spectrin (from UniProt Q62261 1-2363)”: the binding result in experiment [1] and in experiment [2] was “binds” in each case.
